Measured values taken from paper PMC11784115 (Journal of Nanobiotechnology, 2025).
Strings that start with PEPTIDE1 are HELM notation: dots part the residues, brackets hold end groups and non-standard residues.

Test: general procedure: Fmoc solid-phase peptide synthesis; 2-chlorotrityl chloride resin
Conditions: whole synthesis

## PEPTIDE1{[Nap].F.F.G.Y.K.C.D}$$$$V2.0
  final HPLC purity: 96%
